In patent US5240933A, “14-hydroxy-N-(2-methoxyethyl)-7,8-dihydromorphine and -norisomorphine, processes for the preparation thereof and the use thereof as pharmaceutical compositions” (Boehringer Ingelheim GmbH, priority 1991, dated 1993):

Tested on: opiate receptor
Experiment: opiate receptor binding test with [^3 H]-naloxon as radioligand
Conditions: Ki with 0.1M sodium chloride vs Ki without
Procedure: In this test, compound 1a according to the invention has a mean effective dose (MED) of 2.5 mg/kg p.o. (64% effect) and compound 1b according to the invention has an MED of 10 mg/kg p.o. (71% effect). […] This small sodium shift indicates the […] nature of the compounds according to the invention.

Work on `COCCN1CC[C@]23c4c5ccc(O)c4O[C@H]2[C@@H](O)CC[C@@]3(O)[C@H]1C5` [compound 1a, 14-hydroxy-N-(2-methoxyethyl)-7,8-dihydronormorphine] yielded a sodium shift of 1.12.
For `COCCN1CC[C@]23c4c5ccc(O)c4O[C@H]2[C@H](O)CC[C@@]3(O)[C@H]1C5` [compound 1b, 14-hydroxy-N-(2-methoxyethyl)-7,8-dihydronorisomorphine], the sodium shift was 1.11.
